From paper PMC11548879

Test system: HpARI2 (Heligmosomoides polygyrus bakeri)
Assay: EMSA
Conditions: effectively bound all DNA, pH 7.5, 30 min, room temperature, recombinant protein, protein details: C-terminal c-myc, 6xHis, label: IR700 (printed at 5' of S1)

“AACTTTGCCATTGTGGAAGG / CCTTCCACAATGCCAAAGTT [IR700 EMSA oligonucleotide probe]”: binds.

The exact form of at least one protein or probe is not confirmed.
